# Assay results as given in PubChem BioAssay (EPA / NIEHS).
# Chains of the proteins cited; added tags and fusions are not shown. Lines headed by an entry give the natural chain unless they say otherwise; changes in a name come on top.
# UniProt P15204: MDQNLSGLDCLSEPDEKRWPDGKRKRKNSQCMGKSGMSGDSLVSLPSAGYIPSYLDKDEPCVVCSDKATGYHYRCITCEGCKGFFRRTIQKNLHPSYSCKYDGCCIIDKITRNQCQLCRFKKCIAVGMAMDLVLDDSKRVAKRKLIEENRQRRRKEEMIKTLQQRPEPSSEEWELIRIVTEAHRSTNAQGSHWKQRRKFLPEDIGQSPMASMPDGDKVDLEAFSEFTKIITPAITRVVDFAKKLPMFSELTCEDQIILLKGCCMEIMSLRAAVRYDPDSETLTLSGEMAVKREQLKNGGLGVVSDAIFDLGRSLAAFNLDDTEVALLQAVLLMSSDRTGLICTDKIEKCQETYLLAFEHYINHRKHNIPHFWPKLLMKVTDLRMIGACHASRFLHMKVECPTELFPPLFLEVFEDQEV
# UniProt P10828: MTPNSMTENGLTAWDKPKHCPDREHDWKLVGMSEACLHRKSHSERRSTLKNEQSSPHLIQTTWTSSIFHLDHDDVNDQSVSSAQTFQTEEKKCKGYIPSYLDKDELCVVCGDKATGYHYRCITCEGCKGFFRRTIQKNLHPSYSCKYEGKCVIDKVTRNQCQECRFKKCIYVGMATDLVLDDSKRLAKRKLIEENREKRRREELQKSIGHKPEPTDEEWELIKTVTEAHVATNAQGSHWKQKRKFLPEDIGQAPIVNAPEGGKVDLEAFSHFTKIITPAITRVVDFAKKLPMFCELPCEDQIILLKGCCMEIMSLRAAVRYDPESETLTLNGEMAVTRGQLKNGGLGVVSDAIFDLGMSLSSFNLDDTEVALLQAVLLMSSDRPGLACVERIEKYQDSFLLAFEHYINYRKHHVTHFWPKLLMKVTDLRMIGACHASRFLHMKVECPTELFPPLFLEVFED
# UniProt Q98867: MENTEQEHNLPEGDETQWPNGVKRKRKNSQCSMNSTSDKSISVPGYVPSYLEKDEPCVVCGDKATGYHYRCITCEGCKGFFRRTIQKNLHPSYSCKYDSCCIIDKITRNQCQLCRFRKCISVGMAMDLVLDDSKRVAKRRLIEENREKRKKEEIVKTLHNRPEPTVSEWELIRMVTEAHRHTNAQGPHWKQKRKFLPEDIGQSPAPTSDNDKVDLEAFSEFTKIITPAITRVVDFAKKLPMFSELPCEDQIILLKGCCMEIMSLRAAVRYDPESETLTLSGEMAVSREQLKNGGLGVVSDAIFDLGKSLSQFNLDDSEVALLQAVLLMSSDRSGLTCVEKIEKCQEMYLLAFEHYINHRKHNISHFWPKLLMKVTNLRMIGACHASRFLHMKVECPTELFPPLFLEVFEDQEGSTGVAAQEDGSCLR
# UniProt P10827: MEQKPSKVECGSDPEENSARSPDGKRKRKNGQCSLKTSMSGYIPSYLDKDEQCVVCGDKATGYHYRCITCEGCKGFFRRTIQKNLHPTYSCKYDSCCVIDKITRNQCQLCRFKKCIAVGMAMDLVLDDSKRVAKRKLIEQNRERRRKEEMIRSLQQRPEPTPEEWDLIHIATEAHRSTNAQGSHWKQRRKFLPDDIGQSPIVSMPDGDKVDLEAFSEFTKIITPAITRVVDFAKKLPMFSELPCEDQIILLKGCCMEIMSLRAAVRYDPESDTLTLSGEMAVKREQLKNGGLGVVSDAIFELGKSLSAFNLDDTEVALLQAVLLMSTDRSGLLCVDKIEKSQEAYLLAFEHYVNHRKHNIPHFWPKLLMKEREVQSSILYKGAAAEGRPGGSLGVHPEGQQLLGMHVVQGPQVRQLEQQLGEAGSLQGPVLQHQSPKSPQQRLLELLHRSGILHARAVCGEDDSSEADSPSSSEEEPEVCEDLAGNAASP
# UniProt P06401: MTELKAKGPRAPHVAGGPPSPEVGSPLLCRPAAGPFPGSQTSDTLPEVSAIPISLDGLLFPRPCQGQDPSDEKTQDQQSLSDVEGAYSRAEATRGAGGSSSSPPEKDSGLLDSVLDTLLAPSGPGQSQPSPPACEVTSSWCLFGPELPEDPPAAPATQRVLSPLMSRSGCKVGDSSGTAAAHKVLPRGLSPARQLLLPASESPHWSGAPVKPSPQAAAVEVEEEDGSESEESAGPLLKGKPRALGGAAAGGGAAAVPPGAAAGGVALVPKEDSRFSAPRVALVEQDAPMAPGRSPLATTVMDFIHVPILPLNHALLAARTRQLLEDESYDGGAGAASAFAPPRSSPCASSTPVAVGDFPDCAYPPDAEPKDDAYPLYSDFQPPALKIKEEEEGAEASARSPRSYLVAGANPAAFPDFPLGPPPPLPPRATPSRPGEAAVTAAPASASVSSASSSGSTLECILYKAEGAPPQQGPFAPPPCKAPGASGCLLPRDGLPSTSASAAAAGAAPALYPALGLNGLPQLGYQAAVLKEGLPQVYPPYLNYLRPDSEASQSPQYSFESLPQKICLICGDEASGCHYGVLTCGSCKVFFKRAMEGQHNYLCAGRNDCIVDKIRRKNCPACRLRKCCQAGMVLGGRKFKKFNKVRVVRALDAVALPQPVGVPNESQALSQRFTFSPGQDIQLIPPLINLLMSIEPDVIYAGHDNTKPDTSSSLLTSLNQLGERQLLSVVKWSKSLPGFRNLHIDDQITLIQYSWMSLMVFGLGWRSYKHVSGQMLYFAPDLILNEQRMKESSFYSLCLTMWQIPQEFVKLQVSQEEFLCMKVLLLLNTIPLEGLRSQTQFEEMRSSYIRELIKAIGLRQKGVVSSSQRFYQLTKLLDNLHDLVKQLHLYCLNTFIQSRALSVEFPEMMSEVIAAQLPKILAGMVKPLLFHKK
# Values joined by “and” are separate entries in the source; they are usually repeats but may differ in a detail not shown here. Equal entries are not always repeated. Inconclusive results, whose numbers are uncertain, are shown with a selection of clear calls. For some assays here: A potency beside an inconclusive call is a rough fit, not a confirmed value. Some structures have more than one record in an assay (separate samples or runs), and their calls can disagree. Active and inactive are the calls of the source. Rule for the calls: active = hit-call score of the fitted dose curve at least 0.9, where 1 is the maximum; inconclusive = response in the unintended direction; inactive = score below 0.9.
# Columns and labels:
# [1] = system: zebrafish Peroxisome Proliferator-activated Receptor gamma (PPARg), gene 557037; assay: ATG_zfPPARg_XSP2: Attagene TRANS-FACTORIAL Multi-Species (XSP2) HepG2 Assay for zebrafish Peroxisome Proliferator-activated Receptor gamma (PPARg) (AID 2283833);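 note: reporter mRNA from a zebrafish PPARg GAL4 chimera measured by RT-PCR and capillary electrophoresis; actives increase reporter signal over DMSO so AC50 reflects activation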
# In short: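 Transfect HepG2 with multiplexed GAL4-UAS reporter constructs; dose chemical 24 h; isolate RNA, reverse-transcribe, PCR-amplify, label and digest reporter products; resolve by capillary electrophoresis. Activity taken as increase over DMSO.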
# [2] = target: frog Thyroid hormone Receptor alpha (TRa), thra-a (gene 397942) (UniProt P15204); assay: ATG_frTRa_XSP2: Attagene TRANS-FACTORIAL Multi-Species (XSP2) HepG2 Assay for frog Thyroid hormone Receptor alpha (TRa) (AID 2283839);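 for AC50: AC50 reflects induction of frog TRa-driven reporter mRNA above DMSO baseline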
# In short: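 Read-out: fluorescent reporter-transcript fragments resolved by capillary electrophoresis after RT-PCR and HpaI cut. Human HepG2 liver cells carry a transfected frog TRα-Gal4 chimera driving a UAS reporter; 24 h exposure, DMSO baseline, positive-direction fit.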
# [3] = target: human Thyroid hormone Receptor beta (TRb), THRB (gene 7068) (UniProt P10828); assay: ATG_hTRb_XSP2: Attagene TRANS-FACTORIAL Multi-Species (XSP2) HepG2 Assay for human Thyroid hormone Receptor beta (TRb) (AID 2283840);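 note: actives raise reporter mRNA so potency reflects agonist-like gain of signal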
# In short: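 Read-out: reporter mRNA induction (RT-PCR, 6-FAM labeling, capillary electrophoresis), gain-of-signal relative to DMSO baseline. Transiently transfected HepG2 TRANS multiplex (NR-Gal4 chimeras, GAL4-UAS reporters), 24 h chemical exposure; medium contained 3 nM 6-alpha-fluorotestosterone plus 1.5 nM norgestrel.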
# [4] = target: zebrafish Thyroid Hormone Receptor alpha (TRa), thraa (gene 30670) (UniProt Q98867); assay: ATG_zfTRa_XSP2: Attagene TRANS-FACTORIAL Multi-Species (XSP1) HepG2 Assay for zebrafish Thyroid Hormone Receptor alpha (TRa) (AID 2283832);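 note: actives raise zebrafish TRa-Gal4 reporter transcript above DMSO baseline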
# In short: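 Multiplexed TRANS reporter format in HepG2; the medium also contained 3 nM 6-alpha-fluorotestosterone and 1.5 nM norgestrel. Reporter mRNA after 24 h read by RT-PCR and capillary electrophoresis, scored as induction over DMSO.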
# [5] = system: turtle Thyroid Hormone Receptor, alpha (TRa), gene 101949057; assay: ATG_trTRa_XSP2: Attagene TRANS-FACTORIAL Multi-Species (XSP1) HepG2 Assay for turtle Thyroid Hormone Receptor, alpha (TRa) (AID 2283834);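 note: hits raise reporter mRNA over the DMSO baseline so AC50 marks activators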
# In short: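 Readout: reporter mRNA induction, fluorescence after RT-PCR, HpaI digestion and capillary electrophoresis. Transiently transfected HepG2, exogenous NR-Gal4 chimera driving GAL4-UAS reporter, 24 h compound exposure. Activity fitted upward relative to DMSO baseline.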
# [6] = ATG_XTT_Cytotoxicity_XSP2: Cytotoxicity Assessment in the Attagene TRANS-FACTORIAL Multi-Species (XSP2) HepG2 Assay (AID 2283837)
# In short: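 XTT-based cell number read-out in human HepG2 liver cells carrying transfected reporter units, measured 24 h after chemical dosing. Activity is signal loss versus DMSO baseline.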
# [7] = target: human Thyroid hormone Receptor alpha (TRa), THRA (gene 7067) (UniProt P10827); assay: ATG_hTRa_XSP2: Attagene TRANS-FACTORIAL Multi-Species (XSP2) HepG2 Assay for human Thyroid hormone Receptor alpha (TRa) (AID 2283838)
# In short: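 Gain-of-signal in reporter mRNA, relative to DMSO, after 24 h dosing of transfected HepG2; quantitation by RT-PCR fragment analysis on capillary electrophoresis.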
# [8] = CPHEA_Stoker_NIS_Cytotoxicity: Cytotoxicity Assessment for CPHEA's Radioactive Iodide Uptake (RAIU) Assay for Sodium/Iodide Symporter (NIS) Inhibition, Stoker and Laws Labs (AID 2283897);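 for AC50: active means loss of ATP signal versus DMSO meaning cytotoxicity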
# In short: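 ATP luminescence (Cell Titer Glo) measured viability, with loss of signal normalized to DMSO controls. Cells: hNIS-HEK293T-EPA, seeded 40 hours prior. Dosing: 0.001–100uM, 2 hours, room temperature, uptake buffer pH 7.4.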
# PGR (gene 5241) = PGR (gene 5241) (UniProt P06401); assay: TOX21_PR_BLA_Followup_Antagonist_ratio: Tox21 HEK293 Progesterone Receptor (PR) Antagonism Beta-lactamase Follow-Up Assay, Ratio (AID 2283934);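 note: PR-UAS-bla HEK293T cells stimulated with 1 nM R5020 agonist for 16 hr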
# In short: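 Measured in PR-UAS-bla HEK293T cells co-treated with compound and 1 nM promegestone for 16 hr; beta-lactamase ratio read after 2 h FRET substrate loading, with parallel CellTiter-Glo cytotoxicity.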
# [9] = TOX21_PR_BLA_Followup_Antagonist_viability: Viability Assessment in the Tox21 HEK293 Progesterone Receptor (PR) Antagonism Beta-lactamase Follow-Up Assay (AID 2283936);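 note: cells exposed to compound with R5020 agonist for 16 h; hits lower the luminescence signal meaning cytotoxicity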
# In short: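 PR-UAS-bla HEK293T cells in medium with 2% charcoal-stripped FBS were treated with compounds plus R5020 for 16 hr at 37C. After the beta-lactamase read, CellTiter-Glo was added to the same wells and luminescence read after 30 min at room temperature.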
# [10] = target: Thyroid hormone receptor alpha (Rattus norvegicus) + Thyroid hormone receptor beta (Rattus norvegicus) (UniProt P18113+P63059); assay: TOX21_TR_LUC_GH3_Agonist_Followup: Tox21 GH3 Thyroid Hormone Receptor Agonism Luciferase Follow-Up Assay (AID 2283939)
# In short: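 Agonist-mode confirmatory run: 15 concentrations (5 nM to 92 uM final) on GH3 rat pituitary cells, 24 h at 37C/5% CO2, T3 as positive control. Luminescence read with ONE-Glo after 30 min.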
smiles,measurement,setting,value
CC1(C)NC(=O)N(c2ccc([N+](=O)[O-])c(C(F)(F)F)c2)C1=O,AC50,[1],inconclusive: 100 µM and inconclusive: 23.6 µM
same,AC50,[2],active: 66.4 µM
same,outcome,[2],inactive
same,AC50,[3],active: 148 µM
COc1ccc(C(=O)c2ccccc2)c(O)c1,outcome,[4],inactive
same,AC50,[5],inconclusive: 175 µM
same,outcome,[6],inactive
same,outcome,[7],inactive
same,outcome,[3],inactive
NCCN,outcome,[8],inactive
NCc1cccc(C2CCN(C(=O)c3ccc(C#Cc4ccccc4F)o3)CC2)c1,AC50,[8],active: 16.3 µM
C[C@]12C[C@H](O)[C@H]3[C@@H](CCC4=CC(=O)CC[C@@]43C)[C@@H]1CC[C@@H]2C(=O)CO,AC50,PGR (gene 5241),inconclusive: 46.1 µM
C[C@]12C=CC(=O)C=C1CC[C@@H]1[C@@H]2C(=O)C[C@@]2(C)[C@H]1CC[C@]2(O)C(=O)CO,AC50,[9],inconclusive: 23 µM
CCCCCCC(O)CO (centres undefined),outcome,[10],inactive

# 2 entries from above, as tab-separated lines.
smiles	measurement	setting	value
CC1(C)NC(=O)N(c2ccc([N+](=O)[O-])c(C(F)(F)F)c2)C1=O	AC50	[1]	inconclusive: 100 µM and inconclusive: 23.6 µM
C[C@]12C[C@H](O)[C@H]3[C@@H](CCC4=CC(=O)CC[C@@]43C)[C@@H]1CC[C@@H]2C(=O)CO	AC50	PGR (gene 5241)	inconclusive: 46.1 µM
